Counter-ions that a name gives are not always drawn. The list shows a part of the results. Many values rest on one well or one pass, so single values are uncertain. Square brackets hold non-standard residues; d marks the D form. Peptide text beside a SMILES is read from it. Nle = CCCC[C@H](N)C(=O)O

This assay deals with SK-N-BE(2). The assay is described as follows: inhibition of N-Myc immunofluorescence signal per cell relative to control (fraction); higher = stronger N-Myc protein reduction. The note with it: 1 µM; 9 h.
`COc1ccc(C2=N[C@H](c3ccc(Cl)cc3)[C@H](c3ccc(Cl)cc3)N2C(=O)N2CCNC(=O)C2)c(OC(C)C)c1` [Nutlin-3b]: the “inhibition of N-Myc immunofluorescence signal per cell” value (“inhibition … per cell” below) was found to be 0.123.

On to `Nc1nc(COC(=O)c2ccc([N+](=O)[O-])cc2)nc(Nc2ccccc2)n1`, for which the “inhibition … per cell” value was determined as 0.217. `COc1cc2c(NC3CCN(C)CC3)cc(-c3ccc(C)o3)nc2cc1OCCCN1CCCC1`: the “inhibition … per cell” value was determined as 0.0792. The same measure for `Cc1ccc(/C=C2\CNC/C(=C\c3ccc(C)cc3)C2=O)cc1`: 0.109; for `COc1cc2c(cc1OCCCN1CCCC1)N=C(N)C21CCC1`: 0.0203. The same measure for `CC(=O)c1cc([N+](=O)[O-])c(Sc2ccc(F)cc2F)s1`: 0.00338; for `CCN(CC)C(=O)c1ccc(-c2cc(NCCCN3CCCCC3)c3ccccc3n2)cc1` [LMPTP INHIBITOR 1 (dihydrochloride)]: 0.0798. To `OCc1c[nH]c2ccccc12` [Indole-3-carbinol] belongs 0.0888; to `COCCCc1sc(-c2ccccc2)nc1C(=O)Nc1ccccc1-c1nc2cc(CN3CCCC3)cnc2s1` [Sirtuin modulator 1], -0.0758. In the case of `N#Cc1ccc(N2CCN(Cc3ccc(COc4cccc5c4CN([C@H]4CCC(=O)NC4=O)C5=O)cc3)CC2)c(F)c1`, the “inhibition … per cell” value is -0.00387. The same measure for `NC(=O)C1CCCc2c1[nH]c1ccc(Cl)cc21` (stereo not drawn) [Selisistat]: -0.0809; for `CCCC[C@@H](C=O)NC(=O)[C@H](CC(C)C)NC(=O)[C@H](CC(C)C)NC(C)=O` (Ac-Leu-Leu-[Nle]-aldehyde): 0.109. To `CC(C)N(CCCNC(=O)Nc1ccc(C(C)(C)C)cc1)C[C@H]1O[C@@H](n2ccc3c(N)ncnc32)[C@H](O)[C@@H]1O` belongs -0.209.

The record behind these values is the supplement of paper PMC12259267, “Disruption of the KLHL37–N-Myc complex restores N-Myc degradation and arrests neuroblastoma growth in mouse models” (The Journal of Clinical Investigation, 2025).
